Counter-ions that a name gives are not always drawn. Repeats are few or missing, and single values can be far off.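 All cells are established human bladder cancer lines, one derived from a patient-derived xenograft. A luminescent ATP assay measured viability as percent inhibition relative to vehicle across seven dilutions. The paper rates scores above 59 very active, 30–59 active, 21–29 semi-active, 9–20 low active, below 9 inactive.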
Legend:
Test in all cases: drug sensitivity score DSS3 (score 0-100); higher = more sensitive; extreme values may be limits of the assay
Settings in all cases: culture: 3D, ultra-low attachment; treatment time: 5 days
UM-UC-1 = tested on: UM-UC-1
5637 = tested on: 5637
UM-UC-15 = tested on: UM-UC-15
UM-UC-14 = tested on: UM-UC-14
J82 = tested on: J82
UM-UC-5 = tested on: UM-UC-5
SCaBER = tested on: SCaBER
T-24 = tested on: T-24
UM-UC-18 = tested on: UM-UC-18
UM-UC-9 = tested on: UM-UC-9
UM-UC-12 = tested on: UM-UC-12
UM-UC-6 = tested on: UM-UC-6
UM-UC-17 = tested on: UM-UC-17
TCCSUP = tested on: TCCSUP
UM-UC-3 = tested on: UM-UC-3
SW780 = tested on: SW780
BC8149 = tested on: BC8149

SMILES: O=c1[nH]nc(Sc2ncc([N+](=O)[O-])s2)n1-c1ccc2c(c1)OCCO2 [BI-78D3] (max dose 10000 nM)
- drug sensitivity score DSS3 (UM-UC-1): 2
- drug sensitivity score DSS3 5637: 1.12
- drug sensitivity score DSS3 (UM-UC-15): 1.2
- drug sensitivity score DSS3 (UM-UC-14): 0.396
- drug sensitivity score DSS3 (J82): 0
- drug sensitivity score DSS3 (UM-UC-5): 0.105
- drug sensitivity score DSS3 (SCaBER): 1.24
- drug sensitivity score DSS3 (T-24): 1.92
- drug sensitivity score DSS3 (UM-UC-18): 1.6
- drug sensitivity score DSS3 (UM-UC-9): 0.371
- drug sensitivity score DSS3 (UM-UC-12): 2
- drug sensitivity score DSS3 (UM-UC-6): 2.28
- drug sensitivity score DSS3 (UM-UC-17): 0
- drug sensitivity score DSS3 (TCCSUP): 1.22
- drug sensitivity score DSS3 (UM-UC-3): 3.05

SMILES: Cc1cc(Nc2cc(N3CCN(C)CC3)nc(/C=C/c3ccccc3)n2)n[nH]1 [ENMD-2076] (max dose 10000 nM)
- drug sensitivity score DSS3 (UM-UC-1): 3.54
- drug sensitivity score DSS3 5637: 11.1
- drug sensitivity score DSS3 (SW780): 0
- drug sensitivity score DSS3 (UM-UC-15): 0
- drug sensitivity score DSS3 (UM-UC-14): 3.18
- drug sensitivity score DSS3 (J82): 1.45
- drug sensitivity score DSS3 (UM-UC-5): 0
- drug sensitivity score DSS3 (T-24): 1.63
- drug sensitivity score DSS3 (UM-UC-18): 1.91
- drug sensitivity score DSS3 (UM-UC-9): 0
- drug sensitivity score DSS3 (BC8149): 4.8
- drug sensitivity score DSS3 (UM-UC-12): 0.545
- drug sensitivity score DSS3 (UM-UC-6): 0
- drug sensitivity score DSS3 (UM-UC-17): 3.12
- drug sensitivity score DSS3 (TCCSUP): 15.2
- drug sensitivity score DSS3 (UM-UC-3): 1.13

SMILES: CO[C@H]1C[C@@H]2CC[C@@H](C)[C@@](O)(O2)C(=O)C(=O)N2CCCC[C@H]2C(=O)O[C@H]([C@H](C)C[C@@H]2CC[C@@H](OCCO)[C@H](OC)C2)CC(=O)[C@H](C)/C=C(\C)[C@@H](O)[C@@H](OC)C(=O)[C@H](C)C[C@H](C)/C=C/C=C/C=C/1C [Everolimus (RAD001)] (max dose 10000 nM)
- drug sensitivity score DSS3 (UM-UC-1): 18.6
- drug sensitivity score DSS3 5637: 1.87
- drug sensitivity score DSS3 (SW780): 0
- drug sensitivity score DSS3 (UM-UC-15): 0
- drug sensitivity score DSS3 (UM-UC-14): 0
- drug sensitivity score DSS3 (J82): 0.0237
- drug sensitivity score DSS3 (UM-UC-5): 0
- drug sensitivity score DSS3 (SCaBER): 0
- drug sensitivity score DSS3 (T-24): 0
- drug sensitivity score DSS3 (UM-UC-18): 0
- drug sensitivity score DSS3 (UM-UC-9): 0
- drug sensitivity score DSS3 (UM-UC-12): 0
- drug sensitivity score DSS3 (UM-UC-6): 0
- drug sensitivity score DSS3 (UM-UC-17): 0
- drug sensitivity score DSS3 (TCCSUP): 26.2
- drug sensitivity score DSS3 (UM-UC-3): 0

SMILES: CCCCCCCCc1ccc(CCC(N)(CO)CO)cc1 [Fingolimod (FTY720) HCl] (max dose 10000 nM)
- drug sensitivity score DSS3 (UM-UC-1): 0
- drug sensitivity score DSS3 5637: 0.0708
- drug sensitivity score DSS3 (SW780): 0
- drug sensitivity score DSS3 (UM-UC-15): 21.7
- drug sensitivity score DSS3 (UM-UC-14): 0.0405
- drug sensitivity score DSS3 (J82): 0
- drug sensitivity score DSS3 (UM-UC-5): 2.31
- drug sensitivity score DSS3 (T-24): 0
- drug sensitivity score DSS3 (UM-UC-18): 0
- drug sensitivity score DSS3 (UM-UC-9): 0.0226
- drug sensitivity score DSS3 (BC8149): 0
- drug sensitivity score DSS3 (UM-UC-12): 0.883
- drug sensitivity score DSS3 (UM-UC-6): 0
- drug sensitivity score DSS3 (UM-UC-17): 0
- drug sensitivity score DSS3 (TCCSUP): 0.0495
- drug sensitivity score DSS3 (UM-UC-3): 4.57

SMILES: COc1ccc(C(=O)C2CCN(CC(=O)N(Cc3nc4c(c(=O)[nH]3)COCC4)CC3CC3)CC2)cc1 [NVP-TNKS656] (max dose 10000 nM)
- drug sensitivity score DSS3 (UM-UC-1): 26.1
- drug sensitivity score DSS3 5637: 0.113
- drug sensitivity score DSS3 (SW780): 0
- drug sensitivity score DSS3 (UM-UC-15): 0
- drug sensitivity score DSS3 (UM-UC-14): 24.9
- drug sensitivity score DSS3 (J82): 0
- drug sensitivity score DSS3 (UM-UC-5): 0
- drug sensitivity score DSS3 (SCaBER): 0
- drug sensitivity score DSS3 (T-24): 0
- drug sensitivity score DSS3 (UM-UC-18): 0
- drug sensitivity score DSS3 (UM-UC-9): 0
- drug sensitivity score DSS3 (UM-UC-12): 0
- drug sensitivity score DSS3 (UM-UC-6): 10.9
- drug sensitivity score DSS3 (UM-UC-17): 11.9
- drug sensitivity score DSS3 (TCCSUP): 22.7
- drug sensitivity score DSS3 (UM-UC-3): 9.57

SMILES: O=C(Nc1ccc(OC(F)(F)F)cc1)c1sccc1NCc1ccnc2ccccc12 [OSI-930] (max dose 10000 nM)
- drug sensitivity score DSS3 (UM-UC-1): 4.24
- drug sensitivity score DSS3 5637: 0
- drug sensitivity score DSS3 (SW780): 0
- drug sensitivity score DSS3 (UM-UC-15): 0
- drug sensitivity score DSS3 (UM-UC-14): 0
- drug sensitivity score DSS3 (J82): 0
- drug sensitivity score DSS3 (UM-UC-5): 0
- drug sensitivity score DSS3 (SCaBER): 7.07
- drug sensitivity score DSS3 (T-24): 0
- drug sensitivity score DSS3 (UM-UC-18): 0
- drug sensitivity score DSS3 (UM-UC-9): 0
- drug sensitivity score DSS3 (UM-UC-12): 0
- drug sensitivity score DSS3 (UM-UC-6): 0
- drug sensitivity score DSS3 (UM-UC-17): 0
- drug sensitivity score DSS3 (TCCSUP): 0
- drug sensitivity score DSS3 (UM-UC-3): 0.697

SMILES: Cc1ccc(Nc2nccc(N(C)c3ccc4c(C)n(C)nc4c3)n2)cc1S(N)(=O)=O [Pazopanib] (max dose 10000 nM)
- drug sensitivity score DSS3 5637: 1.97
- drug sensitivity score DSS3 (SW780): 0
- drug sensitivity score DSS3 (UM-UC-15): 29.4
- drug sensitivity score DSS3 (UM-UC-14): 0
- drug sensitivity score DSS3 (J82): 0
- drug sensitivity score DSS3 (UM-UC-5): 0
- drug sensitivity score DSS3 (SCaBER): 0
- drug sensitivity score DSS3 (T-24): 12.5
- drug sensitivity score DSS3 (UM-UC-18): 0.438
- drug sensitivity score DSS3 (UM-UC-12): 0
- drug sensitivity score DSS3 (UM-UC-6): 0
- drug sensitivity score DSS3 (UM-UC-17): 0
- drug sensitivity score DSS3 (UM-UC-3): 0

SMILES: O=C(CCc1ccc(O)cc1)c1c(O)cc(O)cc1O [Phloretin] (max dose 10000 nM)
- drug sensitivity score DSS3 (UM-UC-1): 0
- drug sensitivity score DSS3 5637: 0
- drug sensitivity score DSS3 (SW780): 0
- drug sensitivity score DSS3 (UM-UC-15): 0
- drug sensitivity score DSS3 (UM-UC-14): 0
- drug sensitivity score DSS3 (J82): 0
- drug sensitivity score DSS3 (UM-UC-5): 0
- drug sensitivity score DSS3 (T-24): 0
- drug sensitivity score DSS3 (UM-UC-18): 0
- drug sensitivity score DSS3 (UM-UC-9): 0
- drug sensitivity score DSS3 (BC8149): 0
- drug sensitivity score DSS3 (UM-UC-12): 0
- drug sensitivity score DSS3 (UM-UC-6): 0
- drug sensitivity score DSS3 (UM-UC-17): 0
- drug sensitivity score DSS3 (TCCSUP): 0
- drug sensitivity score DSS3 (UM-UC-3): 0

SMILES: CCOc1cc(C(C)(C)C)ccc1C1=N[C@@](C)(c2ccc(Cl)cc2)[C@@](C)(c2ccc(Cl)cc2)N1C(=O)N1CCN(CCCS(C)(=O)=O)CC1 [RG-7112] (max dose 10000 nM)
- drug sensitivity score DSS3 (UM-UC-1): 0
- drug sensitivity score DSS3 5637: 0.335
- drug sensitivity score DSS3 (SW780): 0.132
- drug sensitivity score DSS3 (UM-UC-15): 0
- drug sensitivity score DSS3 (UM-UC-14): 0
- drug sensitivity score DSS3 (J82): 0
- drug sensitivity score DSS3 (UM-UC-5): 0
- drug sensitivity score DSS3 (T-24): 0.399
- drug sensitivity score DSS3 (UM-UC-18): 0
- drug sensitivity score DSS3 (UM-UC-9): 0
- drug sensitivity score DSS3 (BC8149): 0
- drug sensitivity score DSS3 (UM-UC-12): 5.6
- drug sensitivity score DSS3 (UM-UC-6): 0
- drug sensitivity score DSS3 (UM-UC-17): 0
- drug sensitivity score DSS3 (TCCSUP): 0
- drug sensitivity score DSS3 (UM-UC-3): 0

SMILES: CN1CC(=O)N2[C@H](c3ccc4c(c3)OCO4)c3[nH]c4ccccc4c3C[C@@H]2C1=O [Tadalafil] (max dose 10000 nM)
- drug sensitivity score DSS3 (UM-UC-1): 0
- drug sensitivity score DSS3 5637: 0
- drug sensitivity score DSS3 (SW780): 0
- drug sensitivity score DSS3 (UM-UC-15): 4.16
- drug sensitivity score DSS3 (UM-UC-14): 0
- drug sensitivity score DSS3 (J82): 0
- drug sensitivity score DSS3 (UM-UC-5): 0
- drug sensitivity score DSS3 (SCaBER): 0
- drug sensitivity score DSS3 (T-24): 0
- drug sensitivity score DSS3 (UM-UC-18): 0
- drug sensitivity score DSS3 (UM-UC-9): 0
- drug sensitivity score DSS3 (UM-UC-12): 0
- drug sensitivity score DSS3 (UM-UC-6): 0
- drug sensitivity score DSS3 (UM-UC-17): 0
- drug sensitivity score DSS3 (TCCSUP): 0
- drug sensitivity score DSS3 (UM-UC-3): 0

SMILES: COc1cc2c(NC3CCN(C(C)C)CC3)nc(N3CCC(F)(F)CC3)nc2cc1OCCCN1CCCC1 [UNC0642] (max dose 10000 nM)
- drug sensitivity score DSS3 (UM-UC-1): 0
- drug sensitivity score DSS3 5637: 18.6
- drug sensitivity score DSS3 (SW780): 0
- drug sensitivity score DSS3 (UM-UC-15): 0
- drug sensitivity score DSS3 (UM-UC-14): 0
- drug sensitivity score DSS3 (J82): 0
- drug sensitivity score DSS3 (UM-UC-5): 0
- drug sensitivity score DSS3 (SCaBER): 0
- drug sensitivity score DSS3 (T-24): 0
- drug sensitivity score DSS3 (UM-UC-18): 1.89
- drug sensitivity score DSS3 (UM-UC-9): 0
- drug sensitivity score DSS3 (UM-UC-12): 0
- drug sensitivity score DSS3 (UM-UC-6): 0
- drug sensitivity score DSS3 (UM-UC-17): 8.59
- drug sensitivity score DSS3 (TCCSUP): 9.04
- drug sensitivity score DSS3 (UM-UC-3): 5.97
